The assay addresses BSA (bovine (from the name BSA)) (UniProt P02769). Nature of the assay: far-Western, overlay or dot blot; both purified.

Protein sequences, listed by entry. Tags and fused reporters are not part of them. Residues count along the entry.
UniProt P02769, residues 25-607: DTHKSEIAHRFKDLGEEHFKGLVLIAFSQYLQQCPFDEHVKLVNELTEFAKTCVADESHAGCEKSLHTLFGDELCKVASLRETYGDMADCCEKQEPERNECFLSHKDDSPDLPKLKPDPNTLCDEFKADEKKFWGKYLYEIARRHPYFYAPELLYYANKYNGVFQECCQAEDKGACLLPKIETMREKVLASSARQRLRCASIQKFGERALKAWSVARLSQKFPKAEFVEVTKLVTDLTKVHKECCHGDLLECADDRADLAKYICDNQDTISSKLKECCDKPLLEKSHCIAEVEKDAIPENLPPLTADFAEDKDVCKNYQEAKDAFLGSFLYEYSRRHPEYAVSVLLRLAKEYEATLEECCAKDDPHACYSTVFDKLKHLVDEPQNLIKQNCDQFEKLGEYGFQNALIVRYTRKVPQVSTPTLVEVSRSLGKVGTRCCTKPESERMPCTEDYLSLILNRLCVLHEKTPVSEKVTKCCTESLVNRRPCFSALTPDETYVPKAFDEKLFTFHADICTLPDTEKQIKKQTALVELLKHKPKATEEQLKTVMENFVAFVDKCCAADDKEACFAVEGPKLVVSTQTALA
UniProt P9WGM3: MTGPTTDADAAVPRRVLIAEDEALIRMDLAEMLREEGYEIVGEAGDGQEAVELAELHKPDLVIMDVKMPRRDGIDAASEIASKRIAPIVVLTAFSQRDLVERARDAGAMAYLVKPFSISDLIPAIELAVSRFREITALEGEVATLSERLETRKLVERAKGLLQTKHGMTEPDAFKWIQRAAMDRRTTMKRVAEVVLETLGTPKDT

No constants are given. Whether binding was seen depends on the method and setting.

Consider GST-Rv1626 (from UniProt P9WGM3 1-205), for which the binding entry is on record as “no binding (tested: 1 µg/ml)”.

The record behind these values is paper PMC3718739.
